What was measured:
[1] = tested on: ADX cells; assay: Transfer of radiolabeled ceramide from liposomes into ADX cells; format: cell-based, Chinese hamster
[2] = tested on: ADX MDR cells; assay: Daunorubicin-containing cytoplasmic vesicles in ADX cells; format: cell-based, Chinese hamster; settings: 20 μm daunorubicin, steady-state at 2 hours

Row | SMILES | ceramide incorporated into ADX cells ([1]; 10 μM 14C-labeled C18:0 ceramide, two hours) [pmoles/106 cells] | uptake by cells relative to C16:0 ceramide ([1]; 3H-labeled ceramide-containing liposomes, 2 h) | mean diameter of vesicles [2] [µM] | vesicles per cell [2]
1 | CCCCCCCCCCCCC/C=C/[C@@H](O)[C@H](CO)NC(=O)CCCCCCCCCCCCCCCCC [C18:0 ceramide] | 339±12 | about 50% |  | 
2 | COc1cccc2c1C(=O)c1c(O)c3c(c(O)c1C2=O)C[C@@](O)(C(C)=O)C[C@@H]3O[C@H]1C[C@H](N)[C@H](O)[C@H](C)O1 [daunorubicin] |  |  | 0.67 ± 0.01 | 38±6

— patent publication US10052387B2, “Ceramide reversal of multi-drug resistance” (Memorial Sloan-Kettering Cancer Center, priority 2013, dated 2018)
